PubChem BioAssay AID493014 (National Center for Advancing Translational Sciences (NCATS), 2011)
Some of the results follow. Shown are side measurements of this screen, not its main read-out; they come without a call. Compounds called inactive in the main read-out are mostly missing here. Potencies come from curve fits of mixed quality, noted in brackets.

Assay: qHTS Assay to Find Inhibitors of Chronic Active B-Cell Receptor Signaling
Settings: ABC-DLBCL IkBa-CBG/CBR reporter, luminescence ratio (green luciferase fused to IkBa over red control in TMD8 lymphoma cells), 4 h
How it was run: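 Concentration-response series (up to 46 uM) were applied to TMD8 dual-reporter cells for 4 h at 37C with doxycycline. Green/red ratio, after filter-overlap correction, defined %Activity; red signal alone was normalised to basal cells and zero luminescence.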

[1] = measured here: CBR red luminescence, cell number
[2] = measured here: IkBa-CBG green luminescence

Structure (SMILES)	AC50 [1]	AC50 [2]
NS(=O)(=O)c1cccc(NC(=O)c2cccnc2Oc2ccccc2)c1	7.94 µM [rising, partial curve]	14.1 µM [falling, partial curve, poor fit]
COC(=O)c1cc(C#N)c(N(C)Cc2ccccc2)nc1C	29.1 µM [rising, single point]	8.2 µM [falling, partial curve, poor fit]
CCOc1cc(C(=O)NN=C2CCCC2)cc(OCC)c1OCC	22.4 µM [rising, single point]	17.8 µM [falling, single point]
Cc1ccc(OCC(O)CN2CCN(c3ccccc3)CC2)cc1 (centres undefined)	7.08 µM [rising, partial curve]	
CC(C)c1ccccc1NC(=O)c1ccc2ncsc2c1	10 µM [falling, partial curve]	
O=C(Oc1coc(CSc2nnc(NC(=O)C3CC3)s2)cc1=O)c1c(F)cccc1F	17.8 µM [falling, single point]	
Cc1cc(NC(=O)CCC2CCCC2)no1	29.1 µM [rising, single point]	
CCN1CCCC1Cn1cnc2c([nH]c3ccc(Cl)cc32)c1=O (centres undefined)	7.94 µM [falling, partial curve]	
COC(=O)C1=C(C)N=C2SC(C#N)=C(N)N2C1c1ccc(OCc2ccccc2)cc1 (centres undefined)	29.1 µM [falling, single point]	
O=C(Nc1ccc2ccccc2c1)c1ccccc1O	1 µM [falling, full curve]	
COC(=O)C1(O)CC(CC(C)C)=NN1C(=O)c1ccccc1 (centres undefined)	3.66 µM [falling, full curve]	
CC1CCN(c2ccccc2NC(=O)c2cc([N+](=O)[O-])ccc2N2CCOCC2)CC1	2.82 µM [rising, partial curve, poor fit]	
CCSc1nnc(NC(=O)NC2CCCCC2)s1	3.98 µM [rising, partial curve, poor fit]	
COc1cc2c(cc1OC)C1O[C@](CCCCN3C(=O)c4ccccc4C3=O)(C2)OC2=C1C(=O)CC(C)(C)C2		1.58 µM [rising, partial curve, poor fit]
CC(C)(C)OC(=O)NCc1ccc(CNC(=O)c2[nH]cnc2C(=O)NC2CCN(C(=O)OC(C)(C)C)CC2)cc1	29.1 µM [falling, single point]	
N#CNC(=Nc1cccc(F)c1)SCc1ccccc1F	23.1 µM [falling, single point]	
O=C(COC(=O)/C=C/c1ccc(C(F)(F)F)cc1)Nc1ccc2[nH]c(=O)[nH]c2c1	6.51 µM [rising, single point]	
Cc1oc(-c2ccc(Cl)cc2)cc1C(=O)NC1CCN(Cc2ccccc2)CC1	3.16 µM [rising, full curve, poor fit]	
Clc1ccc2nc(CSCc3ccccc3)cn2c1	0.398 µM [rising, full curve, poor fit]	
O=C(NC(=S)Nc1ccc(N2CCCC2)cc1)c1ccc(F)cc1	0.562 µM [falling, full curve]	
COc1ccccc1N(C)S(=O)(=O)c1ccc(C(=O)Nc2nc(C)cs2)cc1	17.8 µM [falling, partial curve, poor fit]	

Structure (SMILES)	AC50 [1]	AC50 [2]
O=S1(=O)N=C(N(CCO)/N=C/c2ccc(Cl)cc2)c2ccccc21	12.6 µM [rising, partial curve]	
O=C(O)c1ccccc1N=Cc1c(O)n(-c2nccs2)c(=O)c2ccccc12	10 µM [falling, partial curve]	
CCc1ccc2c(c1)CCCN2C(=O)c1ccccc1C(=O)O	2.06 µM [falling, partial curve, poor fit]	
CCCc1cc(C(=O)NC2CCCCC2)no1	2.06 µM [falling, full curve]	
O=C(O)Cc1ccc(NC(=O)c2ccc(NC(=O)C3CC3)cc2)cc1	17.8 µM [falling, partial curve]	
COc1ccc2oc(=O)c(-c3cn4c(n3)sc3cc(F)ccc34)cc2c1	14.1 µM [falling, partial curve]	
O=C(/C=C/c1ccccc1)NNC(=O)c1cccs1	10 µM [falling, partial curve]	
COC(=O)c1ccc(C)c(NC(=O)CN(c2cc(OC)ccc2OC)S(C)(=O)=O)c1	0.891 µM [rising, partial curve]	
Cc1ccc2c(CN3CCC(C)CC3)cc(=O)oc2c1	20.6 µM [falling, partial curve, poor fit]	
COC(=O)N/N=C\C=C\c1ccc2c(c1)OCO2	22.4 µM [falling, partial curve, poor fit]	
O=c1[nH]c(COc2ccccc2)nc2ccccc12	11.2 µM [falling, partial curve, poor fit]	
COCc1cc(CN(C)C(=O)c2oc3c(F)cccc3c2C)[nH]n1	11.2 µM [rising, single point]	
Cc1nc(NC(=O)c2ccccc2)sc1-c1csc(Nc2ccc(Cl)cc2)n1	35.5 µM [falling, partial curve, poor fit]	
O=C(OCc1cc(=O)n2cc(Br)ccc2n1)c1ccc(Cl)c(S(=O)(=O)NCc2ccccc2)c1	0.206 µM [rising, partial curve, poor fit]	
CCOc1ccc(C2NC(=O)C(C#N)=C(S)N2c2cccc(C)c2)cc1OC (centres undefined)	5.62 µM [rising, full curve, poor fit]	
COC(=O)CCCN1C(=O)c2cccc3cccc(c23)C1=O	2.82 µM [rising, partial curve]	
COc1cc(NC(=S)NNC(=O)CC(C)C)c(OC)cc1Cl	18.4 µM [rising, single point]	
COc1ccc(COc2cccc(C=O)c2)cc1	9.2 µM [falling, partial curve]	
CCc1nnc(NC(=O)c2ccc(-c3ccc(C(C)=O)cc3)o2)s1	6.51 µM [falling, single point]	
N#Cc1c(/N=C/c2ccco2)sc2c1CCCCC2	7.94 µM [rising, partial curve, poor fit]	

Grouped by structure: the entries above containing a thiophene ring, fused or not.
Structure (SMILES)	AC50 [1]	AC50 [2]
O=C(/C=C/c1ccccc1)NNC(=O)c1cccs1	10 µM [falling, partial curve]	
N#Cc1c(/N=C/c2ccco2)sc2c1CCCCC2	7.94 µM [rising, partial curve, poor fit]	
